Laboratory results: PubChem BioAssay AID493246 (Drosophila RNAi Screening Center, 2011)
Purpose: 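Identify essential fly genes by loss of cell viability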 (primary screen). Cells: Drosophila Kc and S2R+ cells. Knock-down reagent: long dsRNA against Drosophila genes. Read-out: 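Raw, unnormalised count of remaining cells in each well; per-plate z-scores of cell number underlie the calls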. Direction: Kc cell number and S2R+ cell number: higher = more cells remaining. Rule for the call: 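Counted as a hit if cell number falls by a z-score of at least 3 within its plate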.
The deposit covers about 21,000 reagents; shown is a random part of those with a known target gene and a result. In the full data, 429 (2%) are marked active. 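Values are raw and not normalised between plates; calls rest on per-plate z-scores that were not deposited.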 The record does not give: the amount of reagent, the time to read-out.

gene | dsRNA | Kc cell number, rep 1 | Kc cell number, rep 2 | S2R+ cell number, rep 1 | S2R+ cell number, rep 2 | activity call
ec (GeneID 31339) | DRSC17285 | 1.40e6 | 1.48e6 | 1.07e6 | 1.13e6 | inactive
ec (GeneID 31339) | DRSC17286 | 1.30e6 | 1.41e6 | 1.12e6 | 1.25e6 | inactive
ec (GeneID 31339) | DRSC18658 | 1.65e6 | 1.64e6 | 9.88e5 | 1.10e6 | inactive
GstE11 (GeneID 37128) | DRSC06926 | 1.45e6 | 1.47e6 | 1.31e6 | 1.35e6 | inactive
CG11825 (GeneID 36099) | DRSC06090 | 1.51e6 | 1.63e6 | 1.24e6 | 1.38e6 | inactive
CG13540 (GeneID 37686) | DRSC04182 | 1.65e6 | 1.62e6 | 1.27e6 | 1.43e6 | inactive
Nlg3 (GeneID 40912) | DRSC12477 | 1.67e6 | 1.69e6 | 1.14e6 | 1.36e6 | inactive
Nlg3 (GeneID 40912) | DRSC12524 | 1.61e6 | 1.94e6 | 1.27e6 | 1.36e6 | inactive
Nlg3 (GeneID 40912) | DRSC12540 | 1.54e6 | 1.73e6 | 1.16e6 | 1.29e6 | inactive
Nlg3 (GeneID 40912) | DRSC12574 | 1.65e6 | 1.83e6 | 1.33e6 | 1.51e6 | inactive
Utx (GeneID 34377) | DRSC02872 | 1.91e6 | 1.90e6 | 1.12e6 | 1.26e6 | inactive
CG13197 (GeneID 36253) | DRSC06322 | 1.75e6 | 1.92e6 | 1.43e6 | 1.51e6 | inactive
CG9541 (GeneID 34220) | DRSC03257 | 1.56e6 | 1.61e6 | 1.26e6 | 1.36e6 | inactive
Gr64f (GeneID 117477) | DRSC08447 | 1.43e6 | 1.40e6 | 1.00e6 | 1.15e6 | inactive
CG13579 (GeneID 37905) | DRSC04215 | 1.60e6 | 1.69e6 | 1.36e6 | 1.49e6 | inactive
mRpL2 (GeneID 39253) | DRSC10896 | 1.32e6 | 1.19e6 | 1.03e6 | 1.16e6 | inactive
CG6665 (GeneID 36903) | DRSC07006 | 1.47e6 | 1.50e6 | 1.31e6 | 1.31e6 | inactive
CG8543 (GeneID 38837) | DRSC10990 | 1.27e6 | 1.31e6 | 1.16e6 | 1.16e6 | inactive
CG42784 (GeneID 326165) | DRSC02534 | 1.31e6 | 1.33e6 | 1.31e6 | 1.29e6 | inactive
CG42784 (GeneID 326165) | DRSC02535 | 1.53e6 | 1.62e6 | 9.25e5 | 1.02e6 | inactive
TRAM (GeneID 31042) | DRSC18178 | 1.55e6 | 1.53e6 | 1.07e6 | 1.18e6 | inactive
TRAM (GeneID 31042) | DRSC18651 | 1.54e6 | 1.54e6 | 1.01e6 | 1.20e6 | inactive
CG15019 (GeneID 38542) | DRSC08473 | 1.74e6 | 1.63e6 | 9.38e5 | 1.08e6 | inactive
robl22E (GeneID 33412) | DRSC00289 | 1.58e6 | 1.60e6 | 1.10e6 | 1.18e6 | inactive
Gprk2 (GeneID 49045) | DRSC16682 | 4.40e5 | – | 6.96e5 | – | inactive
pins (GeneID 53569) | DRSC17043 | 1.55e6 | 1.59e6 | 9.62e5 | 1.12e6 | inactive
dpr4 (GeneID 3346160) | DRSC14531 | 1.58e6 | 1.58e6 | 1.38e6 | 1.47e6 | inactive
dpr4 (GeneID 3346160) | DRSC14929 | 1.51e6 | 1.53e6 | 1.34e6 | 1.46e6 | inactive
CG9616 (GeneID 41731) | DRSC16518 | 1.29e6 | 1.17e6 | 9.21e5 | 9.96e5 | inactive
pcx (GeneID 31204) | DRSC18186 | 1.45e6 | 1.50e6 | 1.09e6 | 1.18e6 | inactive
pcx (GeneID 31204) | DRSC18187 | 1.52e6 | 1.55e6 | 1.04e6 | 1.22e6 | inactive
pcx (GeneID 31204) | DRSC18188 | 1.47e6 | 1.51e6 | 1.03e6 | 1.13e6 | inactive
pcx (GeneID 31204) | DRSC18189 | 1.53e6 | 1.47e6 | 1.00e6 | 1.21e6 | inactive
pcx (GeneID 31204) | DRSC18190 | 1.57e6 | 1.60e6 | 9.78e5 | 1.15e6 | inactive
pcx (GeneID 31204) | DRSC18816 | 5.15e5 | – | 8.57e5 | – | inactive
elgi (GeneID 39735) | DRSC10242 | 1.54e6 | 1.54e6 | 1.31e6 | 1.33e6 | inactive
CG17134 (GeneID 34494) | DRSC02583 | 1.38e6 | 1.57e6 | 1.20e6 | 1.33e6 | inactive
CG43795 (GeneID 5740629) | DRSC04192 | 1.49e6 | 1.60e6 | 1.31e6 | 1.33e6 | inactive
CG43795 (GeneID 5740629) | DRSC04193 | 1.75e6 | 1.87e6 | 1.47e6 | 1.58e6 | inactive
CG43795 (GeneID 5740629) | DRSC04194 | 1.53e6 | 1.62e6 | 1.27e6 | 1.36e6 | inactive
CG43795 (GeneID 5740629) | DRSC04309 | 1.64e6 | 1.69e6 | 1.24e6 | 1.33e6 | inactive
CG43795 (GeneID 5740629) | DRSC04310 | 1.57e6 | 1.62e6 | 1.17e6 | 1.34e6 | inactive
pyd (GeneID 41062) | DRSC12712 | 1.47e6 | 1.46e6 | 1.07e6 | 1.21e6 | inactive
pyd (GeneID 41062) | DRSC14387 | 1.49e6 | 1.61e6 | 1.21e6 | 1.23e6 | inactive
pyd (GeneID 41062) | DRSC14445 | 1.54e6 | 1.78e6 | 1.27e6 | 1.40e6 | inactive
pyd (GeneID 41062) | DRSC14509 | 1.65e6 | 1.83e6 | 1.30e6 | 1.41e6 | inactive
pyd (GeneID 41062) | DRSC16547 | 1.40e6 | 1.52e6 | 1.22e6 | 1.30e6 | inactive
pyd (GeneID 41062) | DRSC16548 | 1.66e6 | 1.94e6 | 1.12e6 | 1.28e6 | inactive
pyd (GeneID 41062) | DRSC17041 | 1.58e6 | 1.96e6 | 1.27e6 | 1.39e6 | inactive
Ir84a (GeneID 40891) | DRSC12510 | 1.53e6 | 1.66e6 | 1.30e6 | 1.45e6 | inactive
CG11350 (GeneID 38554) | DRSC08181 | 1.71e6 | 1.70e6 | 9.37e5 | 9.92e5 | inactive
CG5098 (GeneID 37063) | DRSC06915 | 1.33e6 | 1.38e6 | 1.13e6 | 1.17e6 | inactive
pcm (GeneID 32935) | DRSC20361 | 1.56e6 | 1.68e6 | 1.06e6 | 1.15e6 | inactive
CG12910 (GeneID 36082) | DRSC06225 | 1.34e6 | 1.34e6 | 1.10e6 | 1.17e6 | inactive
puc (GeneID 40958) | DRSC17034 | 1.44e6 | 1.60e6 | 9.02e5 | 1.02e6 | inactive
Or46a (GeneID 2768728) | DRSC07489 | 1.67e6 | 1.64e6 | 1.38e6 | 1.51e6 | inactive
Or46a (GeneID 2768728) | DRSC07490 | 1.73e6 | 1.64e6 | 1.34e6 | 1.45e6 | inactive
Pino (GeneID 33288) | DRSC00038 | 1.08e6 | 1.10e6 | 7.85e5 | 8.89e5 | active
Pino (GeneID 33288) | DRSC00662 | 1.25e6 | 1.30e6 | 8.97e5 | 1.02e6 | inactive

A run of entries from the list above:
gene | dsRNA | Kc cell number, rep 1 | Kc cell number, rep 2 | S2R+ cell number, rep 1 | S2R+ cell number, rep 2 | activity call
ec (GeneID 31339) | DRSC18658 | 1.65e6 | 1.64e6 | 9.88e5 | 1.10e6 | inactive
GstE11 (GeneID 37128) | DRSC06926 | 1.45e6 | 1.47e6 | 1.31e6 | 1.35e6 | inactive
CG11825 (GeneID 36099) | DRSC06090 | 1.51e6 | 1.63e6 | 1.24e6 | 1.38e6 | inactive
CG13540 (GeneID 37686) | DRSC04182 | 1.65e6 | 1.62e6 | 1.27e6 | 1.43e6 | inactive
